Assay results reported in the supplement of paper PMC12823440, “Inhibitors supercharge kinase turnover through native proteolytic circuits” (Nature, 2025).
Where a name gives a salt, the structure may show the parent alone. This is one part of the list. The calls rarely recur for the same compound in another form.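 Kinases, fused to nanoluciferase, were expressed in K562 cells; luminescence was measured every 4 h from 2 to 18 h as percent of control (DMSO = 100%, positive control = 0%). A time point is decreased if signal falls significantly (2 sigma). Hits were called by the authors by a rule that is not shown; the count of time points alone does not decide it.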

These compounds were tested against SYK (UniProt P43405) (assay: number of time points (of 5) at which kinase-Nluc abundance scored as decreased, DMSO-normalised (count); higher = more persistent destabilization). Conditions: K562; 2-18 h.
For `CC(C)n1ncnc1-c1cn2c(n1)-c1ccc(O[C@@H](C)C(N)=O)cc1OCC2` (10 µM), the “number of time points” value was 0.
In the case of `O=C(c1cccc(Cl)c1F)N1CCN(Cc2cccc(Nc3nccs3)n2)CC1` (2.5 µM), the “number of time points” value is reported as 0.
`COc1cc(F)ccc1-c1ncnc(Nc2cccc(C[S@](C)(=N)=O)c2)n1` [Atuveciclib] (2.5 µM) was tested, and the “number of time points” value was 0.
In the case of `Cc1cnc(NC(=O)c2cc(Oc3cnc(C(=O)N(C)C)nc3)c3cc(C)oc3c2)cn1` (10 µM), the “number of time points” value is reported as 0.
With `CC1=C(C(=O)Nc2cc3cn[nH]c3cc2F)C(c2ccc(C(F)(F)F)cc2)CC(=O)N1` (stereo not drawn) (10 µM) the “number of time points” value was 0.
In the case of `NCC1CCC(CNc2nc(NCc3ccccc3OC(F)(F)F)ncc2[N+](=O)[O-])CC1` (stereo not drawn) [PKC-theta inhibitor] (10 µM), the “number of time points” value is reported as 0.
For `O=C1Nc2ccc(I)cc2/C1=C/c1cc(Br)c(O)c(Br)c1` (10 µM), the “number of time points” value was 0.
With `COc1cc(-c2oc3cc(O)cc(O)c3c(=O)c2O)ccc1O` [Isorhamnetin] (10 µM) the “number of time points” value was 0.
`O=C1OC(/C=C/c2ccccc2)=NC/1=C\c1cccnc1` (10 µM) was tested, and the “number of time points” value was 0.
With `Cn1ncc(NC(=O)c2nc(-c3c(F)cccc3F)sc2N)c1N1CC[C@@H](N)[C@H](F)CC1` (10 µM) the “number of time points” value was 0.
In the case of `CNC(=O)CNc1cnc2ccc(-c3ccc(OC)c(OC)c3)cc2n1` (10 µM), the “number of time points” value is reported as 0.
For `CO[C@H]1C[C@@H]2CC[C@@H](C)[C@@](O)(O2)C(=O)C(=O)N2CCCC[C@H]2C(=O)O[C@H]([C@H](C)C[C@@H]2CC[C@@H](OCCO)[C@H](OC)C2)CC(=O)[C@H](C)/C=C(\C)[C@@H](O)[C@@H](OC)C(=O)[C@H](C)C[C@H](C)/C=C/C=C/C=C/1C` [Everolimus] (10 µM), the “number of time points” value was 0.
In the case of `O=C(Nc1cccnc1)c1cc(-c2ccnc(F)c2)ccc1OCc1ccccc1` (10 µM), the “number of time points” value is reported as 0.
With `COc1c(O)cc2oc(-c3ccc(O)cc3)cc(=O)c2c1O` [Hispidulin] (10 µM) the “number of time points” value was 0.
With `O=C1CC[C@H](NC(=O)Cc2ccccc2)C(=O)N1` [Antineoplaston A10] (10 µM) the “number of time points” value was 0.
With `CC(C)Oc1ccc(F)c(-c2cnc(N)c(C(=O)Nc3cnccc3N3CCC[C@@H](C(=O)O)C3)n2)c1` (2 µM) the “number of time points” value was 0.
For `Nc1nc2c(nc(Br)n2[C@@H]2O[C@@H]3COP(=O)(O)O[C@H]3[C@H]2O)c(=O)[nH]1` [8-Bromo-cGMP (sodium)] (10 µM), the “number of time points” value was 0.
For `Cc1cc(-n2c(=O)ccc3c[nH]c4nccc-4c32)ccc1F` (10 µM), the “number of time points” value was 0.
With `CO[C@H]1CC[C@H](N2C(=O)CNc3ncc(-c4ccc(C(C)(C)O)nc4)nc32)CC1` (2.5 µM) the “number of time points” value was 0.
For `COc1cc2c(cc1OC)/C(=C/c1ccc(O)cc1)C(=O)N2` (10 µM), the “number of time points” value was 0.
With `NCCOc1ccc(Cl)cc1C(=O)Nc1ccc([N+](=O)[O-])cc1Cl` [HJC0152 hydrochloride] (2 µM) the “number of time points” value was 0.
For `CCN(CC)CCOc1ccc(Nc2nc(-c3ccccc3NC(=O)CCN3CCN(C)CC3)nc3ccccc23)cc1` (2.5 µM), the “number of time points” value was 0.
For `C=CC(=O)N1CCN(C(=O)CNc2cc(I)c(Cl)cc2O)CC1` [K-Ras(G12C) inhibitor 12] (10 µM), the “number of time points” value was 0.
With `N[C@@H]1CCCN(c2c(/C=C3\SC(=O)NC3=O)cccc2-c2ccccc2)C1` (10 µM) the “number of time points” value was 0.
`O=C(Nc1cc(Cl)cc2c1[nH]c1cnccc12)c1cccnc1` (10 µM) was tested, and the “number of time points” value was 0.
For `C=C1C(=O)[C@@]23[C@H](O)C[C@@H]4C(C)(C)C(=O)CC[C@@]4(C)[C@@H]2CC[C@@H]1[C@H]3O` [Glaucocalyxin A] (2.5 µM), the “number of time points” value was 0.
In the case of `C[C@@H]1O[C@@H](Oc2cc(O)c3c(=O)c(O[C@@H]4O[C@@H](C)[C@H](O)[C@@H](O)[C@H]4O)c(-c4ccc(O)cc4)oc3c2)[C@H](O)[C@H](O)[C@H]1O` [Kaempferitrin] (10 µM), the “number of time points” value is reported as 0.
In the case of `Cc1c(C(=O)Nc2ccc(Oc3ccnc4[nH]cc(-c5ccccc5)c34)c(F)c2)c(=O)n(-c2ccc(F)cc2)n1C` (10 µM), the “number of time points” value is reported as 0.
With `c1nc2c(NC3CCCCC3)nc(Nc3ccc(N4CCOCC4)cc3)nc2[nH]1` [Reversine] (10 µM) the “number of time points” value was 0.
In the case of `CN1CCN(c2ccc(Nc3ncc4cc(C#N)c(=O)n(C5CCCC5)c4n3)cc2)CC1` (10 µM), the “number of time points” value is reported as 0.
`NC[C@@](O)(c1ccc(Cl)cc1)c1ccc(-c2cn[nH]c2)cc1` (10 µM) was tested, and the “number of time points” value was 0.
For `Cc1ccc(-n2nc(C(C)(C)C)cc2NC(=O)Nc2ccc(OCCN3CCOCC3)cc2)cc1` (10 µM), the “number of time points” value was 0.
`c1ccc(Cn2c(-c3ccc(OC[C@H](C4CCNCC4)n4c(-c5ccccc5)nc5ccccc54)cc3)nc3ccccc32)cc1` [Deltarasin] (2.5 µM) was tested, and the “number of time points” value was 0.
In the case of `C=CC(=O)N1CC[C@@H](Oc2nc(Nc3ccc(N4CCC(N5CCN(C)CC5)CC4)cc3)c(C(N)=O)nc2CC)C1` [Naquotinib (mesylate)] (2.5 µM), the “number of time points” value is reported as 0.
In the case of `Cc1cc(O)c2c(c1)C(=O)c1cccc(O)c1C2=O` [Chrysophanol] (2 µM), the “number of time points” value is reported as 0.
With `Cc1cc(C(=O)NC(C)(C)C)cc(C#Cc2ccc3c4c(oc3c2)C(C)(C)c2cc(NS(C)(=O)=O)ccc2C4=O)n1` (10 µM) the “number of time points” value was 0.
In the case of `Nc1nc(NCCNc2ncc(-n3ccnc3)c(-c3ccc(Cl)cc3Cl)n2)ccc1[N+](=O)[O-]` (2.5 µM), the “number of time points” value is reported as 0.
For `Cn1c(CNc2cccc(C(=O)NCc3ccccc3C(F)(F)F)c2)nnc1-c1ccncc1` (10 µM), the “number of time points” value was 0.
